Experimental data reported in paper PMC11228364.
Results are given in words; binding and its absence hold for the method and conditions named. In cells and extracts the contact can be indirect. Some results given as binding are weak or reduced against the parent protein; the word gives no strength.

Amino acid sequences for entries named in this document (tags omitted). A change or cut given only in a name is not applied to a line headed by its entry. Chains listed by the source or under a name are the forms on record and can include a tag or linker.
UniProt Q6ZTA4: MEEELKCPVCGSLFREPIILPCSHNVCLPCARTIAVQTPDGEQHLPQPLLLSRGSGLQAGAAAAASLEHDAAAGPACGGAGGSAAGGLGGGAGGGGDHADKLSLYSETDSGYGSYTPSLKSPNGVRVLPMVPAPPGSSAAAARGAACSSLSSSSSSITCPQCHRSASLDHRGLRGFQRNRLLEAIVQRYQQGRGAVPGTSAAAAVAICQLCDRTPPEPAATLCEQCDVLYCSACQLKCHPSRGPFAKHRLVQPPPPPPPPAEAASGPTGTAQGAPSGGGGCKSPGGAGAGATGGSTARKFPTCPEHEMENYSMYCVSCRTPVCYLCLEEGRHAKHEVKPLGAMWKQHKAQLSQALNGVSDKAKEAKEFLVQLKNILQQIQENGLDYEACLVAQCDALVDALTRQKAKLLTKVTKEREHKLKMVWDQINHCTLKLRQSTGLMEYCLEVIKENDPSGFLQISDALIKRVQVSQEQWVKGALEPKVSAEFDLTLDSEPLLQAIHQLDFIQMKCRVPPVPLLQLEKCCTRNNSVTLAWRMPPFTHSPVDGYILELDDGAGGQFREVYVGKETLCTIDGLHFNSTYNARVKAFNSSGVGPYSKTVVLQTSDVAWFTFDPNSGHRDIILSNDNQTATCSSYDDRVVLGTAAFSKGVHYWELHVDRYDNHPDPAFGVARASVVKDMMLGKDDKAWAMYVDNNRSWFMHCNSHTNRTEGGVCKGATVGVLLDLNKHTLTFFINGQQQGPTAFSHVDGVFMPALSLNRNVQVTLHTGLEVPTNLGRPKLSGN
UniProt Q9Y5P6: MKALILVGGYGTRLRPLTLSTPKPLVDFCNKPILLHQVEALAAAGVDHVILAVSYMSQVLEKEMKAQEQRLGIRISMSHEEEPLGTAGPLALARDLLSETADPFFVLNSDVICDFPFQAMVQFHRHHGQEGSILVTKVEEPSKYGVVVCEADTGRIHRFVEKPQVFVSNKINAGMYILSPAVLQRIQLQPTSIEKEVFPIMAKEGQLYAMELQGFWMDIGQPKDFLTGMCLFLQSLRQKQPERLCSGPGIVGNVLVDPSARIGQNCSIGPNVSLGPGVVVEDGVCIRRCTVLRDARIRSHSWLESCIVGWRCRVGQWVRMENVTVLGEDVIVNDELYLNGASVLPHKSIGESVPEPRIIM
3xFLAG-GMPPB K143/162/195R (Q9Y5P6, form named): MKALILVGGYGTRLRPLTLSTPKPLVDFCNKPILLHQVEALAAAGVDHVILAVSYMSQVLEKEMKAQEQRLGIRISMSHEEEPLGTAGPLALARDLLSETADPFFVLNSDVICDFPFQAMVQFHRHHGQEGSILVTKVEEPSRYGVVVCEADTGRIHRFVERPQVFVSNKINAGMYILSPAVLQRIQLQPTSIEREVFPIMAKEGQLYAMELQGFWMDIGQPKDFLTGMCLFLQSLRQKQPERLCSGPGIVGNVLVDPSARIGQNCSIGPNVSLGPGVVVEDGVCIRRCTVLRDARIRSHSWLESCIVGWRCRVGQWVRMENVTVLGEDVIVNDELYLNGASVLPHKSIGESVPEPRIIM

Legend:
[1] = target: HA-TRIM67 (E3 ubiquitin ligase TRIM67) (UniProt Q6ZTA4); assay: co-IP; HEK-293 T cells transfected with FLAG3-GMPPB and HA-TRIM67; immunoprecipitation of HA-TRIM67, Western blot for FLAG
[2] = target: 3xFLAG-GMPPB (GDP-mannose pyrophosphorylase B), wild type (human) (UniProt Q9Y5P6); assay: co-IP; HEK-293 T cells co-transfected with HA-TRIM67 and FLAG3-GMPPB WT or 3KR; IP with anti-FLAG M2 antibodies coupled to Protein A Sepharose, 4°C 2 h, imidazole lysis buffer (150 mM NaCl, 0.25% Triton X-100); Western blot for HA
[3] = target: 3xFLAG-GMPPB K143/162/195R (human) (UniProt Q9Y5P6); assay: as above

binding [1] | binding [2] | binding [3] | Substance
binds |  |  | 3xFLAG-GMPPB (GDP-mannose pyrophosphorylase B), wild type (from UniProt Q9Y5P6 1-360) (enzyme)
 | binds | binds | HA-TRIM67 (E3 ubiquitin ligase TRIM67) (from UniProt Q6ZTA4 1-783) (enzyme)
